These results are taken from PMC2771921.

By UniProt entry, the sequences of proteins in these tests, tags left out.
UniProt P15337: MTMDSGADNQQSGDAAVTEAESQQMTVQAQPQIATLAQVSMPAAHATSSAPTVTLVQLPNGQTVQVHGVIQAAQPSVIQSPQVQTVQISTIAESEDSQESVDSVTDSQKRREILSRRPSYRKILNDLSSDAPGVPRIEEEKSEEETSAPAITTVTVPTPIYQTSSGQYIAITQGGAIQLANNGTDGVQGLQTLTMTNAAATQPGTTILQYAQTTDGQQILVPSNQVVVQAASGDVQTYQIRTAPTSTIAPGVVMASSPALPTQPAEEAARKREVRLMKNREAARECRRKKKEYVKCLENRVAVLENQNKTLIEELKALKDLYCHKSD
UniProt P16220: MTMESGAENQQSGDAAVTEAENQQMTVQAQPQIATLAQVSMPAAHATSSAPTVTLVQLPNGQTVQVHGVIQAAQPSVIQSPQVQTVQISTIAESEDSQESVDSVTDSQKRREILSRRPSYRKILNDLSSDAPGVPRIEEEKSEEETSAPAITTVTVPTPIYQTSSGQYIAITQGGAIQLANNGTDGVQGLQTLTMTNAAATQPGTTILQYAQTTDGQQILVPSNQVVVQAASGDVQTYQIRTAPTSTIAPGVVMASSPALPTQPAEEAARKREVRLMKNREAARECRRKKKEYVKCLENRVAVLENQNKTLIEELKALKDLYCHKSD
UniProt P05412: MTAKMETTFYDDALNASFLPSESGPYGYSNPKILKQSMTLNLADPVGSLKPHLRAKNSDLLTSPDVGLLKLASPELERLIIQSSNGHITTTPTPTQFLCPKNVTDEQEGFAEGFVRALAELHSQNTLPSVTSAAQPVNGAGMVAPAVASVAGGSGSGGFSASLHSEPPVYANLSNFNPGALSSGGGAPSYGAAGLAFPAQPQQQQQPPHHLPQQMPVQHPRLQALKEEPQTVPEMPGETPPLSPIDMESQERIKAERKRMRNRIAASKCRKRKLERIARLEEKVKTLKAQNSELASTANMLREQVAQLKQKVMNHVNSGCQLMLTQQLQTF

Results are given in words; binding and its absence hold for the method and conditions named. In cells and extracts the contact can be indirect. Some entries that bind do so weakly or less than the wild type. For some assays here: Sequences can lack the tags named with a protein.

Experiment [1] addresses T1, endogenous WOX1 (SK-N-SH neuroblastoma cells) (human (endogenous in SK-N-SH)) (UniProt Q9NZC7).
T1 sequence: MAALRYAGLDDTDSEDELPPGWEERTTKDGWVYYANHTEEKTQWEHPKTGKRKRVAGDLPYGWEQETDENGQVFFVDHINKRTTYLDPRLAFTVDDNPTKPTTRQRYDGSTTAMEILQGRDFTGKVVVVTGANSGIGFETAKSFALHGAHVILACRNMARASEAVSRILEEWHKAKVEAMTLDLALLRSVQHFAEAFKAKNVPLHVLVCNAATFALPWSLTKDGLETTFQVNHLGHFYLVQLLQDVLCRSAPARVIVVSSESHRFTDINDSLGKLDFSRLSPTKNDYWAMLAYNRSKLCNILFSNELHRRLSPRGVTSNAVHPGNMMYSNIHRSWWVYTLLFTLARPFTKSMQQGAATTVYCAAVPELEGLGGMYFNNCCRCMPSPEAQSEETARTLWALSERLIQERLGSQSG
Kind of experiment: co-IP; human SK-N-SH cell lysates, precleared with protein A agarose, immunoprecipitated with anti-WOX1 IgG and protein A agarose, Western blotting; cells exposed to ischemic conditions (1% oxygen and low glucose) for 2 hours by the methods; data not shown. In general terms: A western blot detects proteins with antibodies after separation by electrophoresis.

Experiment [2] addresses CREB-EGFP (rat CREB in frame with EGFP) (rat) (UniProt P15337). Kind of experiment: FRET or BRET; primary rat DRG neurons co-transfected with DsRed and EGFP fusions, cultured 24-48 hr; EGFP donor, DsRed2 acceptor; excitation 455 nm, emission 600 nm; spectrally corrected FRETc; with or without deferoxamine (DFO, 500 µM, 2 hours). For orientation: In BRET a luciferase serves as donor, and the signal depends on an acceptor being close.

The target of the next experiment is EYFP-CREB (UniProt P15337). Kind of experiment: FRET or BRET; parallel FRET with ECFP and EYFP fusions (ECFP-WOX1 with EYFP-CREB, or ECFP-CREB with EYFP-WOX1); data not shown.
The target in a further experiment is ECFP-CREB (UniProt P15337). The description is as above.

With “endogenous p-CREB (SK-N-SH neuroblastoma cells) (from UniProt P16220 1-327)”, in experiment [1], the binding entry was “binds”.
As to “endogenous c-Jun (SK-N-SH neuroblastoma cells) (from UniProt P05412 1-331)”, the binding entry in experiment [1] is recorded as “binds”.

B1: WOX1-DsRed (full-length murine WOX1 in frame with DsRed) (protein, UniProt Q91WL8 1-414)
chain: MAALRYAGLDDTDSEDELPPGWEERTTKDGWVYYANHTEEKTQWEHPKTGKRKRVAGDLPYGWEQETDENGQVFFVDHINKRTTYLDPRLAFTVDDNPTKPTTRQRYDGSTTAMEILQGRDFTGKVVLVTGANSGIGFETAKSFALHGAHVILACRNLSRASEAVSRILEEWHKAKVEAMTLDLAVLRSVQHFAEAFKAKNVSLHVLVCNAGTFALPWGLTKDGLETTFQVNHLGHFYLVQLLQDVLCRSSPARVIVVSSESHRFTDINDSSGKLDLSRLSPPRSDYWAMLAYNRSKLCNILFSNELHRRLSPRGVTSNAVHPGNMMYSAIHRNSWVYKLLFTLARPFTKSMQQGAATTVYCAVAPELEGLGGMYFNNCCRCLPSEEAQSEETARALWELSERLIQDRLGSPSS
B1: in experiment [2], the binding result is reported as “binds”.

B2: ECFP-WOX1 (protein, UniProt Q91WL8 1-414)
chain: MAALRYAGLDDTDSEDELPPGWEERTTKDGWVYYANHTEEKTQWEHPKTGKRKRVAGDLPYGWEQETDENGQVFFVDHINKRTTYLDPRLAFTVDDNPTKPTTRQRYDGSTTAMEILQGRDFTGKVVLVTGANSGIGFETAKSFALHGAHVILACRNLSRASEAVSRILEEWHKAKVEAMTLDLAVLRSVQHFAEAFKAKNVSLHVLVCNAGTFALPWGLTKDGLETTFQVNHLGHFYLVQLLQDVLCRSSPARVIVVSSESHRFTDINDSSGKLDLSRLSPPRSDYWAMLAYNRSKLCNILFSNELHRRLSPRGVTSNAVHPGNMMYSAIHRNSWVYKLLFTLARPFTKSMQQGAATTVYCAVAPELEGLGGMYFNNCCRCLPSEEAQSEETARALWELSERLIQDRLGSPSS
For B2, the binding result with EYFP-CREB was “binds”.

B3: EYFP-WOX1 (protein, UniProt Q91WL8 1-414)
chain: MAALRYAGLDDTDSEDELPPGWEERTTKDGWVYYANHTEEKTQWEHPKTGKRKRVAGDLPYGWEQETDENGQVFFVDHINKRTTYLDPRLAFTVDDNPTKPTTRQRYDGSTTAMEILQGRDFTGKVVLVTGANSGIGFETAKSFALHGAHVILACRNLSRASEAVSRILEEWHKAKVEAMTLDLAVLRSVQHFAEAFKAKNVSLHVLVCNAGTFALPWGLTKDGLETTFQVNHLGHFYLVQLLQDVLCRSSPARVIVVSSESHRFTDINDSSGKLDLSRLSPPRSDYWAMLAYNRSKLCNILFSNELHRRLSPRGVTSNAVHPGNMMYSAIHRNSWVYKLLFTLARPFTKSMQQGAATTVYCAVAPELEGLGGMYFNNCCRCLPSEEAQSEETARALWELSERLIQDRLGSPSS
For B3, in the experiment with ECFP-CREB, the binding result is listed as “binds”.
